Data on 2 molecules can be found in publication PMC7064621.

No constants are given. Whether binding was seen depends on the method and setting. In cells and extracts the contact can be indirect. Binding calls can cover weak binding; strength is not graded here. Sequences can lack the tags named with a protein.

In assay [1] the target is T1, Myc-AtRPN1A (Arabidopsis thaliana) (UniProt Q9SIV2).
T1 sequence: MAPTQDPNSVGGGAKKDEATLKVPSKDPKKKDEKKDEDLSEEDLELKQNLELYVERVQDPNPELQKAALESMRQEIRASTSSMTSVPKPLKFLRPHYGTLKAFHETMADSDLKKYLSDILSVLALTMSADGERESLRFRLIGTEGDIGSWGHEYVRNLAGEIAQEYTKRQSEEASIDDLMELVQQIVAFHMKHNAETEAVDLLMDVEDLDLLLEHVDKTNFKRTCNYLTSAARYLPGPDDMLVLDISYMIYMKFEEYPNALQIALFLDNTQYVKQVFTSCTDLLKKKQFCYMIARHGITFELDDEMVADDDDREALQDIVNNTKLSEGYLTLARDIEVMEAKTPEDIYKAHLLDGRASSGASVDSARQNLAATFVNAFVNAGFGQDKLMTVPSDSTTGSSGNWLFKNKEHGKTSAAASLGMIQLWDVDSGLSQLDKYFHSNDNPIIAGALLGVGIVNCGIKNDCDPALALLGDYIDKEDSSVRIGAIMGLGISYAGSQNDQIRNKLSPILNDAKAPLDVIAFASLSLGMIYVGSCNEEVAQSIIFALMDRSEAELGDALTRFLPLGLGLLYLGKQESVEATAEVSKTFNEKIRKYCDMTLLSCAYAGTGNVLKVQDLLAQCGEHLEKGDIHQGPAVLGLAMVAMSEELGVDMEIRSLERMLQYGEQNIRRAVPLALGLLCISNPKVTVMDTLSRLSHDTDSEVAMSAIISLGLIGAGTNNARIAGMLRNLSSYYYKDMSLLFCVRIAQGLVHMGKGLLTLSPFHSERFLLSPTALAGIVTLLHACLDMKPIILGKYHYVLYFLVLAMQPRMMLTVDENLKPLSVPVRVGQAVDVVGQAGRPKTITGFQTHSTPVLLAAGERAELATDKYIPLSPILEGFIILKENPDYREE
The assay can be described thus: co-IP; transient co-expression in N. benthamiana; extract precleared with protein A-sepharose, Myc antibodies coupled with protein A-sepharose beads; anti-GFP blot.

Assay [2] concerns the target AtNHR2A-GFP, transiently expressed in N. benthamiana (Arabidopsis thaliana). Put plainly: co-IP; semi-in vivo: 5 ug purified His-AtENGD-1 mixed with 100 ug total protein of N. benthamiana expressing AtNHR2A-GFP or GFP; GFP Trap-A beads; anti-His blot; only the binder purified.

Take “AtNHR2B-GFP, transiently expressed in N. benthamiana (Arabidopsis thaliana)”: the binding entry in assay [1] is reported as “binds”.

B1: 6X-His-AtENGD-1 (protein, UniProt Q9SA73 1-394)
chain: MPPKAKAKDAGPVERPILGRFSSHLKIGIVGLPNVGKSTLFNTLTKLSIPAENFPFCTIEPNEARVNIPDERFDWLCQTYKPKSEIPAFLEIHDIAGLVRGAHEGQGLGNNFLSHIRAVDGIFHVLRAFEDADIIHVDDIVDPVRDLETITEELRLKDIEFVGKKIDDVEKSMKRSNDKQLKIELELLQKVKAWLEDGKDVRFGDWKTADIEILNTFQLLSAKPVVYLINLNERDYQRKKNKFLPKIHAWVQEHGGDTMIPFSGVFERSLADMAPDEAAKYCEENKLQSALPRIIKTGFSAINLIYFFTAGPDEVKCWQIRRQSKAPQAAGAIHTDFERGFICAEVMKFEDLKELGNEPAVKAAGKYRQEGKTYVVQDGDIIFFKFNVSGGGKK
Take B1: in assay [2], the binding result is listed as “binds”.
